Data on 61 molecules can be found in PubChem BioAssay AID2685 (National Center for Advancing Translational Sciences (NCATS), 2010).

Structures are written as SMILES. The list shows a part of the results. Shown are side measurements of this screen, not its main read-out; they come without a call. Compounds called inactive in the main read-out are mostly missing here. Potencies come from curve fits of mixed quality, noted in brackets.

This experiment is described as follows: qHTS Assay for Lipid Storage Modulators in Drosophila S3 Cells.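 On cell number change: cells counted by Cell Tracker Red CMTPX staining in the red channel.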 Particulars: BODIPY lipid droplet fluorescence, 18-24 h; for cell number change: measured here: cell count max response, cells fed with added oleic acid. The gist of the method: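 Laser-scanning cytometry quantifies lipid droplet accumulation (500–530 nm total intensity; droplet/cell object ratio) in oleic acid-fed (400 uM added) Drosophila S3 cells treated with a concentration series. 20 uM Triacsin C defined 100% inhibition.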

[1] abbreviates: measured here: cell number channel AC50, cells fed with added oleic acid.
[2] abbreviates: measured here: lipid fluorescence (Fed channel) AC50, cells fed with added oleic acid.

As usually defined, the AC50 is the midpoint of the concentration-response curve, whichever way the signal moves. A high value points to activity only at high concentration. On to `Clc1ccc(-c2cc3ccccc3nc2N2CCCC2)cc1`, for which the AC50 under setting [1] is 2.91 µM [rising, partial curve].

As for `S=C1SCN(Cc2ccccc2)CN1Cc1ccccc1`, the cell number change was 11.1%. The AC50 under setting [1] is 0.517 µM [rising, full curve]. Besides, under setting [2], the half-maximal activity concentration (AC50) was 0.58 µM [falling, single point].

Take `N#Cc1nc(-c2ccc(OCc3ccccc3)cc2)oc1N1CCC(C(N)=O)CC1`: the cell number change was determined as 5.04%. For the same molecule, the AC50 under setting [1] was 1.64 µM [falling, partial curve].

Take `CNC(=O)C(=O)NCCCN1CCOCC1`: the cell number change was 27.7%. In addition, under setting [2], the AC50 is 6.51 µM [rising, single point].

Regarding `Cc1nc([N+](=O)[O-])c(N2CCN(C)CC2)n1Cc1ccccc1`, the cell number change turned out to be 2.26%.

For the molecule `CC(=O)c1cn(C)c(=O)n(C)c1=O`, the cell number change was -35.8%. In addition, the AC50 under setting [1] was 0.731 µM [rising, partial curve, poor fit].

`COCCN(C(=O)c1csnn1)C(C(=O)NC1CCCC1)c1ccccc1` (stereo unspecified): the cell number change amounted to 19.2%. Also, the AC50 under setting [1] was 3.66 µM [rising, single point].

As for `O=C(Nc1cccc(Cl)c1)O/N=C\c1ccncc1`, the cell number change was -11.8%.

As to `Cc1cc(C)n2nc(C(=O)OCC(=O)N3CC(C)CC(C)C3)nc2n1` (stereo unspecified), the cell number change was -3.3%. Also, the AC50 under setting [2] is 25.9 µM [rising, partial curve, poor fit].

On to `CCOc1ccc(N2C(=O)CC(N3CCOCC3)C2=O)cc1` (stereo unspecified), for which the cell number change turned out to be 8.19%. For the same molecule, the half-maximal activity concentration (AC50) under setting [2] was 0.082 µM [rising, full curve, poor fit].

Turning to `Cc1c(C(=O)O)sc(=S)n1-c1ccccc1`, the cell number change was -1.1%. Further, the half-maximal activity concentration (AC50) under setting [2] is 29.1 µM [falling, single point].

For `Fc1ccc(CNc2nc(-c3cccnc3)nc3ccccc23)cc1`, the cell number change is -3.97%. Further, the AC50 under setting [2] is 29.1 µM [falling, single point].

As to `O=C(NCCc1ccccc1)C1CCCN(C(=O)NC2CCCCC2)C1` (stereo unspecified), the cell number change is 4.89%. Further, under setting [2], the AC50 was 0.13 µM [rising, full curve, poor fit].

For `O=C(Nc1nc2ccc(F)cc2s1)Oc1ccccc1`, the cell number change is 8.4%. Also, the AC50 under setting [2] was 29.1 µM [rising, single point].

With `COc1ccc(CCNC(=O)c2ccc(NC(=O)CC3SC(N4CCCC4)=NC3=O)cc2)cc1` (stereo unspecified), the cell number change was -11.3%.

As for `COc1ccc(Br)cc1CNC(=O)CCN1C(=O)COc2ccccc21`, the cell number change turned out to be 4.65%. Moreover, under setting [2], the AC50 was 6.51 µM [rising, single point].

As to `Cc1nnc(NC(=O)c2ccc3c(c2)OCO3)s1`, the cell number change stood at 25.4%. Further, under setting [2], the AC50 was 8.2 µM [rising, partial curve, poor fit].

For the molecule `CCOc1ccc(OCCSc2nc3ccccc3n2CC(=O)O)cc1`, the cell number change is 4.2%. The AC50 under setting [2] was 29.1 µM [rising, single point].

For `CCOC(=O)C1=C(C)N=C2SCCC(=O)N2C1c1ccc(C(=O)OC)cc1` (stereo unspecified), the cell number change is -14.1%.

For `O=C(NC(NC(=S)Nc1c(Cl)cc(Cl)cc1Cl)C(Cl)(Cl)Cl)OCc1ccccc1` (stereo unspecified), the cell number change was -20.1%. Under setting [2], the AC50 was 29.1 µM [falling, single point].

Turning to `N#Cc1nc(-c2cccc3ccccc23)oc1NCCN1CCOCC1`, the cell number change was -13.1%.

In the case of `CCOc1cc(C(=S)N2CCCC2)ccc1OCc1ccccc1`, the cell number change is -39.9%. Further, the AC50 under setting [1] is 29.1 µM [falling, single point].

Consider `O=c1[nH]c2cc(NCCO)c([N+](=O)[O-])cc2[nH]1`, for which the cell number change came to 49.5%. Besides, the AC50 under setting [1] was 16.4 µM [rising, single point]. The AC50 under setting [2] was 6.51 µM [falling, single point].

On to `Oc1ccccc1C1=Nc2nc3ccccc3n2C(c2ccccc2)C1` (stereo unspecified), for which the cell number change was -93%. The AC50 under setting [1] was 18.4 µM [falling, single point]. Besides, the AC50 under setting [2] was 29.1 µM [rising, single point].

In the case of `CCOc1ccccc1N1CCN(C(=O)c2cccs2)CC1`, the cell number change came out at 15.2%. Also, the AC50 under setting [2] is 6.51 µM [rising, single point].

As to `CCc1c(C)nc2ncnn2c1Nc1ccc(C)cc1`, the cell number change was -9.62%. For the same molecule, the AC50 under setting [2] is 29.1 µM [falling, single point].

As to `Cn1c(SCc2c(Cl)cccc2Cl)nnc1-c1cccs1`, the cell number change was -0.0261%.

Consider `Cc1ccc(-c2nc(SCC(=O)N(C)C3CCS(=O)(=O)C3)[nH]c2-c2ccc(C)cc2)cc1` (stereo unspecified), for which the cell number change is -85.4%. The AC50 under setting [1] was 2.31 µM [falling, full curve]. Also, under setting [2], the AC50 was 5.8 µM [falling, partial curve].

Regarding `COc1cccc(NC(=O)NCc2ccccc2F)c1`, the cell number change was -6.33%. Further, the AC50 under setting [2] is 0.092 µM [falling, full curve, poor fit].

Turning to `Cc1cccc(C)c1OCCNC(=O)OCc1ccccc1`, the cell number change is -121%. In addition, the AC50 under setting [1] is 25.9 µM [falling, single point]. The AC50 under setting [2] is 6.51 µM [rising, single point].

In the case of `COc1ccc2c(c1)c(C(=O)O)c(C)n2-c1ccc(Cl)cc1`, the cell number change was found to be 3.31%. For the same molecule, the AC50 under setting [2] was 7.31 µM [rising, partial curve].

As to `Cc1cc(C)cc(NC(=O)CSc2nnc(-c3ccccc3)n2N)c1`, the cell number change came out at 23.8%. Moreover, the AC50 under setting [1] is 3.26 µM [rising, partial curve, poor fit].

As for `Cc1occc1-c1nnc(SCC(=O)N2CCCc3ccccc32)n1Cc1ccco1`, the cell number change was found to be 10.9%. In addition, the AC50 under setting [2] was 1.84 µM [rising, partial curve].

Regarding `COc1cc(OC)c(N(C)C(=O)CCNC(=O)Cn2cnc3ccccc3c2=O)cc1Cl`, the cell number change is 84.7%. For the same molecule, the AC50 under setting [1] is 14.6 µM [rising, partial curve].

Turning to `O=C(N1CCCCCC1)n1c(Cc2ccccc2)nc2ccccc21`, the cell number change is -26.7%. Also, under setting [2], the half-maximal activity concentration (AC50) is 29.1 µM [falling, single point].

Take `O=C(Nc1ccc2c(c1)OCO2)c1cc2ncc(Br)cn2n1`: the cell number change stood at 9.87%. For the same molecule, the AC50 under setting [2] was 5.8 µM [rising, partial curve].

In the case of `CCOC(=O)C1=C(COC(=O)Cc2ccc(OC)c(OC)c2)NC(=O)NC1C` (stereo unspecified), the cell number change stood at 14.3%.

Turning to `CN(C)CCNC(=O)Cn1c(=O)c2cccn2c2ccc(F)cc21`, the cell number change stood at 12.1%. Also, the AC50 under setting [2] is 6.51 µM [rising, single point].

On to `Cn1c(SCC(=O)N2CCCc3ccccc32)nnc1-c1ccccc1`, for which the cell number change was -16.5%. Besides, under setting [2], the AC50 was 5.17 µM [rising, single point].

As to `O=C(NC(=S)Nc1ccc2[nH]ncc2c1)c1ccccc1`, the cell number change was found to be 32.7%. Moreover, the concentration at half-maximal activity (AC50) under setting [1] is 0.411 µM [rising, full curve]. The AC50 under setting [2] was 3.66 µM [rising, full curve].

On to `COc1ccc(/C=C/C(=O)Oc2ccc(/C=N/NC(=O)c3ccncc3)cc2)cc1`, for which the cell number change was found to be 14.3%. In addition, the AC50 under setting [2] was 0.58 µM [rising, single point].

For the molecule `CCCCC(=O)NC(c1ccccc1Cl)c1c(O)ccc2ccccc12` (stereo unspecified), the cell number change is -2.86%. Also, the AC50 under setting [2] is 0.082 µM [falling, single point].

Take `COCCCNc1oc(-c2cccs2)nc1S(=O)(=O)c1ccc(C)cc1`: the cell number change was -0.615%. In addition, the AC50 under setting [1] was 0.00461 µM [falling, full curve, poor fit]. The AC50 under setting [2] was 0.82 µM [falling, full curve, poor fit].

Take `CCOP(=O)(NC(c1ccccc1)c1nc2ccccc2[nH]c1=O)OCC` (stereo unspecified): the cell number change is -22.5%.

`CSc1ccc(C(=O)C2CCCN(C(=O)CN3CCOC3=O)C2)cc1` (stereo unspecified): the cell number change is 24.6%. For the same molecule, the AC50 under setting [2] is 0.164 µM [rising, full curve, poor fit].

With `C=CCOc1c(Br)cc(/C=C(\C#N)C(N)=O)cc1OC`, the cell number change turned out to be 0.264%. In addition, the AC50 under setting [1] was 6.51 µM [falling, single point].

Regarding `CCOC(=O)N1CCN(C(=O)C2CCN(S(=O)(=O)c3ccc(Cl)cc3)CC2)CC1`, the cell number change was 6.03%. Also, the AC50 under setting [2] is 0.517 µM [falling, single point].

For the molecule `Cn1c(=O)[nH]c(=O)c2c1nc(N1CCN(CCO)CC1)n2Cc1ccccc1Cl`, the cell number change came out at 20.4%. Moreover, the half-maximal activity concentration (AC50) under setting [2] was 7.31 µM [rising, single point].

Regarding `COc1cc(C(=O)Nc2nc3ccc(S(C)(=O)=O)cc3s2)cc(OC)c1C`, the cell number change was -12.7%. For the same molecule, under setting [1], the AC50 is 3.66 µM [falling, single point]. Further, the AC50 under setting [2] was 3.66 µM [falling, single point].

On to `CCOC(=O)/C(C#N)=C\c1ccc(O)c(OC)c1`, for which the cell number change was -51.7%. Besides, the half-maximal activity concentration (AC50) under setting [1] was 16.4 µM [falling, partial curve].

Turning to `CCCNC(=O)COc1coc(CN2CCN(c3cccc(Cl)c3)CC2)cc1=O`, the cell number change was found to be 40.8%. The AC50 under setting [1] was 4.11 µM [rising, partial curve]. For the same molecule, under setting [2], the AC50 was 23.1 µM [rising, partial curve].

Consider `Cc1ccc(C(C(=O)NC2CCCCC2)N(CC2CCCO2)C(=O)CNC(=O)c2cccs2)cc1` (stereo unspecified), for which the cell number change was -31%. Further, the concentration at half-maximal activity (AC50) under setting [1] was 3.26 µM [falling, partial curve]. In addition, the AC50 under setting [2] was 2.59 µM [falling, partial curve].

On to `CCCCCc1ccc(OCCOCCn2c[n+](C)c3ccccc32)c(CCCCC)c1`, for which the cell number change was -84.1%. Besides, under setting [1], the AC50 is 4.11 µM [falling, partial curve]. Moreover, the AC50 under setting [2] was 3.66 µM [falling, partial curve].

Take `C=CCSc1nc2c(c(=N)n1CC=C)C1CCCC1S2` (stereo unspecified): the cell number change was -44.5%. Further, under setting [1], the AC50 is 16.4 µM [falling, partial curve, poor fit]. The AC50 under setting [2] was 9.2 µM [rising, partial curve, poor fit].

In the case of `Cc1ccc(C(=O)NCCNC(=O)CN2CCOCC2)cc1`, the cell number change is -6.54%.

As for `Cc1cc(/C=C2/SC(=O)NC2=O)c(C)n1-c1ccc(N2CCOCC2)cc1`, under setting [2], the AC50 was 6.51 µM [rising, single point].

In the case of `O=C(CC(=O)c1cc(Cl)ccc1O)c1ccccc1`, the cell number change was -154%. Further, the AC50 under setting [1] was 20.6 µM [falling, single point]. The AC50 under setting [2] is 20.6 µM [falling, single point].

Take `Cn1ccc(NC(=O)c2ccc(Cl)cc2)n1`: the cell number change stood at 1.47%. Besides, the AC50 under setting [2] was 1.64 µM [falling, single point].

With `O=[N+]([O-])c1ccc(CSc2ccc(S(=O)(=O)N3CCOCC3)cn2)cc1`, the cell number change was -33.7%. In addition, the AC50 under setting [1] was 20.6 µM [falling, partial curve, poor fit]. In addition, the concentration at half-maximal activity (AC50) under setting [2] is 1.84 µM [falling, partial curve, poor fit].

`Cc1cc(C)nc(NC(=O)C(C)C)n1`: the cell number change was -18.1%. The AC50 under setting [2] was 29.1 µM [falling, single point].

Consider `NC(=O)c1nn(-c2ccccc2)nc1NC(=O)CSc1nnnn1-c1ccc(Cl)cc1`, for which the cell number change is 33.1%. In addition, under setting [1], the AC50 is 4.61 µM [rising, partial curve, poor fit]. Moreover, the AC50 under setting [2] was 3.26 µM [rising, partial curve].
